Experimental data as given in the supplement of paper PMC10849652.
The other results are listed elsewhere or left out.

Chains of the proteins cited; added tags and fusions are not shown. Lines headed by an entry give the natural chain unless they say otherwise; changes in a name come on top.
UniProt P15907: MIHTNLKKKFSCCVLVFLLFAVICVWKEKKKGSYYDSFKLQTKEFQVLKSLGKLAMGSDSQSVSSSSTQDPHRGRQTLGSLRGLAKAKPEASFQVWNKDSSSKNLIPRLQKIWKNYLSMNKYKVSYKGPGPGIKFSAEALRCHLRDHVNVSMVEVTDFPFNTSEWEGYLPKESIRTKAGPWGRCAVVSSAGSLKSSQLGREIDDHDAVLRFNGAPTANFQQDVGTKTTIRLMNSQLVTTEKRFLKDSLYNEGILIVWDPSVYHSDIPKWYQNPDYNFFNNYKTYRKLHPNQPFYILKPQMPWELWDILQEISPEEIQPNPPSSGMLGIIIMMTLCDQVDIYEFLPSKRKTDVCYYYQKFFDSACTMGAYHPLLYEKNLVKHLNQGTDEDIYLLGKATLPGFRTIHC
UniProt Q9NSC7: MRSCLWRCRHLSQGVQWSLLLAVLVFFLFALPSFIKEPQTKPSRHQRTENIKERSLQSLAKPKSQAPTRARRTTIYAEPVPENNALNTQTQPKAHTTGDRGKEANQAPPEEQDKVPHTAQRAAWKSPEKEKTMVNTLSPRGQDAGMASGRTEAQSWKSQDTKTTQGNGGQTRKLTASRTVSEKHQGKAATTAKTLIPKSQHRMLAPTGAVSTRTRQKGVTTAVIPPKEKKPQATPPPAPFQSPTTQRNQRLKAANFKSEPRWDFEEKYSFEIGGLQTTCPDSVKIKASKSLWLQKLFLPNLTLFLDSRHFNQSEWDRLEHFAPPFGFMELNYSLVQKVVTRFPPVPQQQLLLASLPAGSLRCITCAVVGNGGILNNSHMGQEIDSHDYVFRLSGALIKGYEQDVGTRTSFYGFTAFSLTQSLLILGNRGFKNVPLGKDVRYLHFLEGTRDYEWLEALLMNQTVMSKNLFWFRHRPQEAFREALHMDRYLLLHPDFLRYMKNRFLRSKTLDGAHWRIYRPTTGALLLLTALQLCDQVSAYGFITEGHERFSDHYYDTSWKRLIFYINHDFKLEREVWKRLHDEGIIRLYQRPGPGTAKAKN
UniProt Q56A73: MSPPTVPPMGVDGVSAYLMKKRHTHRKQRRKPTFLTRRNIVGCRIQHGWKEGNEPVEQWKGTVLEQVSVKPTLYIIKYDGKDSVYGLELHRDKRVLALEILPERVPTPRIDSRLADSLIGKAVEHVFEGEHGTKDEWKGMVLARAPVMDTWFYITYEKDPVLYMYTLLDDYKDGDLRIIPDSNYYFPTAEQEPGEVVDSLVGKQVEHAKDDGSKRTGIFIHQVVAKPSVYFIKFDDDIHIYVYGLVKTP
UniProt Q15005: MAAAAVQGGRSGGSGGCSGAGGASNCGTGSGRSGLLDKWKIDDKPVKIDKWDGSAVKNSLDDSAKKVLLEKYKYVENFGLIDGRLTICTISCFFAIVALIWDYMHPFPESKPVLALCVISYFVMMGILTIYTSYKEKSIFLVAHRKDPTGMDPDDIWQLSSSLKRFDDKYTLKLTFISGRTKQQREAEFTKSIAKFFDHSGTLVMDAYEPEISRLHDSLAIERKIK
UniProt Q9BRL6: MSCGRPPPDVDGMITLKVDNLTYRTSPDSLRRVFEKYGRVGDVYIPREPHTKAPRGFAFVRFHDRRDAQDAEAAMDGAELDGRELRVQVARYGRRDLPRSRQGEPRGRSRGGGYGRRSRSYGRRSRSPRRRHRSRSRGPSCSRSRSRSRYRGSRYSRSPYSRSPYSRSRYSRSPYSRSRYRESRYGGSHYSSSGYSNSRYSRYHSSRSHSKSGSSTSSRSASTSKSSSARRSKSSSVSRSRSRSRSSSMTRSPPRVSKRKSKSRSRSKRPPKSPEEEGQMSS
UniProt P43307: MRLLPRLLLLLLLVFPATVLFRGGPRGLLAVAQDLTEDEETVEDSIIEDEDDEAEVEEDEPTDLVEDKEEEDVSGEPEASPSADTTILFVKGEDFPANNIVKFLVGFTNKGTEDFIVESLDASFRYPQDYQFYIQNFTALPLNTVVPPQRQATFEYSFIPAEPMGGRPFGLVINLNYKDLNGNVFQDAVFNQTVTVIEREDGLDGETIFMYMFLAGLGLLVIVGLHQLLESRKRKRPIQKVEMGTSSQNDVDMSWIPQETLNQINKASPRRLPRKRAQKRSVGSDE
UniProt P11831: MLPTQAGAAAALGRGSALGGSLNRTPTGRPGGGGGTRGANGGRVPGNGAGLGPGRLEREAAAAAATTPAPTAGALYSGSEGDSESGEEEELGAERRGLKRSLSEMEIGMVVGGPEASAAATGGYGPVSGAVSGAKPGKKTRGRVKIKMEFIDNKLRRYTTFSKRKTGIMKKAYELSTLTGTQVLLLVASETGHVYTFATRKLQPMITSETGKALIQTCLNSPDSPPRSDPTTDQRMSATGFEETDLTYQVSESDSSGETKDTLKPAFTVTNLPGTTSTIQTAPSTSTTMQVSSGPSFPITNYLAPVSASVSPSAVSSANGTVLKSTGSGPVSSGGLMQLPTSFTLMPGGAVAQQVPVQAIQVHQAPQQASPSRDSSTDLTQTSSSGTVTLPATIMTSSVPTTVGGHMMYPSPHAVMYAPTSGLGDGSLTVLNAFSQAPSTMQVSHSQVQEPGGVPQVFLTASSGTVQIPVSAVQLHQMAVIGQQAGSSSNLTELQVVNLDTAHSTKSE
UniProt Q69YQ0: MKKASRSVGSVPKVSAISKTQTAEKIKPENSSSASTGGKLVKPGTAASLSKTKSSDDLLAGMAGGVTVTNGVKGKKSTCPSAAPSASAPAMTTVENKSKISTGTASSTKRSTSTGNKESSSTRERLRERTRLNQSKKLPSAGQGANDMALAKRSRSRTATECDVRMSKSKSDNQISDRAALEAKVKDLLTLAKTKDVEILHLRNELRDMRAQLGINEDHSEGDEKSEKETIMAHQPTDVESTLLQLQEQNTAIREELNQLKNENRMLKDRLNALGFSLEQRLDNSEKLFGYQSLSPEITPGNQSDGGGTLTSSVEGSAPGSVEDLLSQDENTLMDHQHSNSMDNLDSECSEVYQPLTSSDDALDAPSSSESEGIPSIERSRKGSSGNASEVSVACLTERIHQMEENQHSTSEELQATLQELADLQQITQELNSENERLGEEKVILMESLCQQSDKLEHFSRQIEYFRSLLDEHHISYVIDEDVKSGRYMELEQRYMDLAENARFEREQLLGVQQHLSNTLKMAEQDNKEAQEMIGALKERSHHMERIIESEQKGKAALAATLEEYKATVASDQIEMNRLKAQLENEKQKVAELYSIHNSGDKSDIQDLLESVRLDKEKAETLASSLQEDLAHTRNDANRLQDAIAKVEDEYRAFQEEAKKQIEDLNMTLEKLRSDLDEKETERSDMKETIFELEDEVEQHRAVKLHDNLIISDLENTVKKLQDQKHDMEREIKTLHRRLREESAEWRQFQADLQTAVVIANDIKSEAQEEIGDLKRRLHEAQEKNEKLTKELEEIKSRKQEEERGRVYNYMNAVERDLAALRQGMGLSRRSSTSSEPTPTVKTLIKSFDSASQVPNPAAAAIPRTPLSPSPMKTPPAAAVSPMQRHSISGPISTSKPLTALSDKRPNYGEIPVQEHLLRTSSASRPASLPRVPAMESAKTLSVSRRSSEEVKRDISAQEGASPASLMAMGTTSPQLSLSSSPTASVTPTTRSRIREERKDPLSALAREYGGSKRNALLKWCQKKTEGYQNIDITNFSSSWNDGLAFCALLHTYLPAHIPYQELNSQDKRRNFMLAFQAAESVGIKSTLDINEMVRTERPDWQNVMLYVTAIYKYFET
UniProt Q05519: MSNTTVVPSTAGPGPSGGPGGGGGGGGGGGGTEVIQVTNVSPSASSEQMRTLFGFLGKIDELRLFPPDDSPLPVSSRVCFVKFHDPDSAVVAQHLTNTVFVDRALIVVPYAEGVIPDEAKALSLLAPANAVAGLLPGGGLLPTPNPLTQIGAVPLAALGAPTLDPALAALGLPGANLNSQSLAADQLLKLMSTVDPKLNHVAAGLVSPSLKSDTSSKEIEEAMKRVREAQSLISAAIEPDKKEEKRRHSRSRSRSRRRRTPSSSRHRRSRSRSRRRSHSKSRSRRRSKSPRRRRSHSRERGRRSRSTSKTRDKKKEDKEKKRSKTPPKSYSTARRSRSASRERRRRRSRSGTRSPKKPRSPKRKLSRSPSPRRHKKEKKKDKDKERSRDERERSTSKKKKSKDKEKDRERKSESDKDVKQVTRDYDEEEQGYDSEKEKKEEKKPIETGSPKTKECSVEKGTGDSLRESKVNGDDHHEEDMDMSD
UniProt P10124: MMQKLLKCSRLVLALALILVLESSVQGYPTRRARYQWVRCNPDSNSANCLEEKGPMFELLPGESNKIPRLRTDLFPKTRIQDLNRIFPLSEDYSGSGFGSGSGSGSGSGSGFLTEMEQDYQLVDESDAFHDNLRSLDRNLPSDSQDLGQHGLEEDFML
UniProt Q9NP77: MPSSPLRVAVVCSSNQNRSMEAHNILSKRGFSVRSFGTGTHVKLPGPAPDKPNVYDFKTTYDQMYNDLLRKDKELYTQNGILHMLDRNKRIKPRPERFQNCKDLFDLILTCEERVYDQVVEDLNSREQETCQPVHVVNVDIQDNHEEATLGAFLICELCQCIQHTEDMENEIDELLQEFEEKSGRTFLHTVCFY
UniProt P40763, whole entry, looked up: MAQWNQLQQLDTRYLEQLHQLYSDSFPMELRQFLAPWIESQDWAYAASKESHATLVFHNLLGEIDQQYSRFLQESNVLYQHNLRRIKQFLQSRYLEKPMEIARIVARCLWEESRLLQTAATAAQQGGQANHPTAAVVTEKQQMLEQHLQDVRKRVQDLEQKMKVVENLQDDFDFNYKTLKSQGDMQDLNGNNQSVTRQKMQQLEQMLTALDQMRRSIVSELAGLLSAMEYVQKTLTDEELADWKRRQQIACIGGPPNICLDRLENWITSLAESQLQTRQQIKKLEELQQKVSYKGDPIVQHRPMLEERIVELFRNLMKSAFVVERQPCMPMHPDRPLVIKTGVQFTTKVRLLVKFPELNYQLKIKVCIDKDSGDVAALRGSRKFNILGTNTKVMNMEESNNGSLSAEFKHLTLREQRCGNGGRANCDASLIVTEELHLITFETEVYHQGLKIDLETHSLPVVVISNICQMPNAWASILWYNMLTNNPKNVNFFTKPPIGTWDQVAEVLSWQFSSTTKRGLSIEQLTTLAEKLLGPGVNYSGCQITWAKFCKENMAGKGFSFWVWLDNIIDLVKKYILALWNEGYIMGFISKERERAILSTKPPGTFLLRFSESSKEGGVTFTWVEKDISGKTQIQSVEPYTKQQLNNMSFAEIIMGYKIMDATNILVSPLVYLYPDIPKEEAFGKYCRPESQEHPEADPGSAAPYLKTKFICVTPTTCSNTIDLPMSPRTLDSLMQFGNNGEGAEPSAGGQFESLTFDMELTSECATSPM
UniProt Q07955, whole entry, looked up: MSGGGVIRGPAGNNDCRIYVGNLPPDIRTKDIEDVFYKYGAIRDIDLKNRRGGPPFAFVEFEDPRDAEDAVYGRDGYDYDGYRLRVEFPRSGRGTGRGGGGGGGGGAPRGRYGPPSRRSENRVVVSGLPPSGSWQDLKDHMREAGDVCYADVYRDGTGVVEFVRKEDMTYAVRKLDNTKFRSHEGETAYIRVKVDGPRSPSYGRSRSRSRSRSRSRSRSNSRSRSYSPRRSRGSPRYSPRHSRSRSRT
UniProt P49458: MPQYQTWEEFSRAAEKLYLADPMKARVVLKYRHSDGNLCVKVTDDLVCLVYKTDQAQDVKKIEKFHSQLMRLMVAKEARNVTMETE
UniProt Q9GZT4: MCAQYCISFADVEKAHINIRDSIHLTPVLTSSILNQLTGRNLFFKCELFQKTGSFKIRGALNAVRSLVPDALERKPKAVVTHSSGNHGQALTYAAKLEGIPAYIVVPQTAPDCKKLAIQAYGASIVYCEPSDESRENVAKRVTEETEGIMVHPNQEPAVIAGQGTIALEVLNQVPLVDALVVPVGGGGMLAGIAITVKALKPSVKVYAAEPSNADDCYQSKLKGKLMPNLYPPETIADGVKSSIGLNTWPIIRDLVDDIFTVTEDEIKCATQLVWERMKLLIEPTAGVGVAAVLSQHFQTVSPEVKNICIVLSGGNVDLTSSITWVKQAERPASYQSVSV
UniProt P08240: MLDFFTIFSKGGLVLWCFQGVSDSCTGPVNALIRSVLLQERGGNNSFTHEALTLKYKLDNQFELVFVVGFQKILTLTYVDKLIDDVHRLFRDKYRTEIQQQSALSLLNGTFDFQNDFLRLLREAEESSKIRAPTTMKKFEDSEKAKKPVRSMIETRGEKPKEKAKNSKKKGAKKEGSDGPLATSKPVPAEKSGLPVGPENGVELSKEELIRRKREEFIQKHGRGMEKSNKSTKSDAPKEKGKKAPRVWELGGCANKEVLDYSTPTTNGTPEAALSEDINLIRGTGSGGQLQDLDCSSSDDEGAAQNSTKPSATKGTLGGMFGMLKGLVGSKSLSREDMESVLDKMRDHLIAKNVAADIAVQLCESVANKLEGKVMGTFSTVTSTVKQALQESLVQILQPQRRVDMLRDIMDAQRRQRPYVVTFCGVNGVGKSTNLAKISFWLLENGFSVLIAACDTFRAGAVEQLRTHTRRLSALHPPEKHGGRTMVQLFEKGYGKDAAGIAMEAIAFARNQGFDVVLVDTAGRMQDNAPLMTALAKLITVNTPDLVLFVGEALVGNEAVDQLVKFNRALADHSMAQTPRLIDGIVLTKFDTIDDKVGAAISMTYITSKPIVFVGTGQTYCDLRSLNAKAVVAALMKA

How the values were obtained:
Experiment in all cases: log2 fold change, soluble protein after heating vs DMSO (PISA); higher = thermal stabilisation; K562 lysate, 10 uM; active = over 0.2 and 3.5 SD of the protein, either way, in both replicates (recomputed)
[1] = compound: NCC(=O)Nc1ccc(-n2nc(C(F)(F)F)cc2-c2ccc3c(ccc4ccccc43)c2)cc1
Method in brief: (§1)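 Values give the log-two fold change in thermal stability against solvent controls, from duplicates. Crude K562 extract at 1 mg/mL protein, made by dounce homogenisation in PBS pH 7.4 with 1 mM MgCl2, was treated with 10 μM compound for 30 min. After 3 min heating across 48°C-58°C, aliquots were pooled, adjusted to 0.5% NP-40 at 4°C and centrifuged at 21,000xg for 90 min. The supernatant was measured by TMTpro 16plex LC-MS/MS with channel sums equalised.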

vorinostat = compound: O=C(CCCCCCC(=O)Nc1ccccc1)NO [vorinostat]
Method in brief: as §1

silmitasertib = compound: O=C(O)c1ccc2c(c1)nc(Nc1cccc(Cl)c1)c1ccncc12 [silmitasertib]
Method in brief: as §1

[2] = compound: O=C1NC(=O)C(c2cnc3ccccn23)=C1c1cn2c3c(cc(F)cc13)CN(C(=O)N1CCCCC1)CC2
Method in brief: as §1

entospletinib = compound: c1cn2cc(-c3ccc4cn[nH]c4c3)nc(Nc3ccc(N4CCOCC4)cc3)c2n1 [entospletinib]
Method in brief: as §1

Target	log2 fold change [1]	log2 fold change (vorinostat)	log2 fold change (silmitasertib)	log2 fold change [2]	log2 fold change (entospletinib)
SQSTM1 (UniProt Q13501)	inactive: 0.05	inactive: -0.061	inactive: -0.028	inactive: 0.012	inactive: -0.024
SRBD1 (UniProt Q8N5C6)	inactive: 0.013	inactive: 0.04	inactive: 0.012	inactive: -0.018	inactive: 0.009
SPRY4 (UniProt Q9C004)	inactive: -0.034	inactive: 0.008	inactive: 0	inactive: -0.019	inactive: -0.059
ST6GAL1 (UniProt P15907)	inactive: 0.013	inactive: 0.121	inactive: 0.048	inactive: -0.051	inactive: -0.015
SRI (UniProt P30626)	inactive: -0.091	inactive: 0.071	inactive: 0.013	inactive: -0.014	inactive: -0.041
SRSF5 (UniProt Q13243)	inactive: 0.029	inactive: 0.065	inactive: -0.01	inactive: 0.008	inactive: -0.015
ST6GALNAC1 (UniProt Q9NSC7)	inactive: 0.002	inactive: 0.05	inactive: -0.001	inactive: -0.001	inactive: -0.02
SPAST (UniProt Q9UBP0)	inactive: 0.036	inactive: -0.267	inactive: 0.001	inactive: -0.04	inactive: 0.031
SPATS2 (UniProt Q86XZ4)	inactive: -0.047	active: -0.507	inactive: 0.002	inactive: -0.049	inactive: 0.176
ST7 (UniProt Q9NRC1)	inactive: -0.002	inactive: -0.077	inactive: 0.001	inactive: 0.033	inactive: 0.071
SSX1 (UniProt Q16384)	inactive: 0.078	inactive: -0.379	inactive: -0.021	inactive: 0.065	inactive: -0.013
SPTAN1 (UniProt Q13813)	inactive: 0.001	inactive: 0.087	inactive: 0.001	inactive: -0.011	inactive: 0.01
SQLE (UniProt Q14534)	inactive: 0.01	inactive: 0.103	inactive: -0.056	inactive: -0.042	inactive: 0.029
SSBP4 (UniProt U3KPY3)	inactive: -0.157				
SSR4 (UniProt P51571)	inactive: -0.006	inactive: 0.11	inactive: -0.013	inactive: -0.003	inactive: 0.011
SPIN4 (UniProt Q56A73)	inactive: -0.298				
SRGAP2 (UniProt O75044)	inactive: 0.03	inactive: -0.163	inactive: -0.014	inactive: -0.05	inactive: 0.011
ST13P4 (UniProt Q8IZP2)	inactive: 0.131	inactive: -0.216	inactive: 0.034		
SPART (UniProt Q8N0X7)	inactive: 0.021	inactive: -0.126	inactive: -0.029	inactive: -0.019	inactive: -0.031
SSBP1 (UniProt Q04837)	inactive: 0.025	inactive: 0.146	inactive: -0.023	inactive: -0.013	inactive: 0.014
SPCS2 (UniProt Q15005)	inactive: -0.024	inactive: 0.169	inactive: 0.014	inactive: -0.019	inactive: 0.013
SRP72 (UniProt O76094)	inactive: 0.008	inactive: -0.231	inactive: 0.001	inactive: 0.005	inactive: 0.04
SS18 (UniProt Q15532)	inactive: -0.064	inactive: 0.026	inactive: 0.018	inactive: 0.093	inactive: -0.143
STIM1 (UniProt Q13586)	inactive: 0.026	inactive: 0.126	inactive: -0.01	inactive: 0.018	inactive: -0.025
SRSF8 (UniProt Q9BRL6)	inactive: 0	inactive: 0.14	inactive: 0.008	inactive: -0.022	inactive: -0.015
SSR1 (UniProt P43307)	inactive: -0.051	inactive: 0.034	inactive: 0.038	inactive: -0.015	inactive: -0.003
SRF (UniProt P11831)	inactive: -0.008	inactive: -0.008	inactive: -0.054	inactive: 0.028	inactive: -0.072
SRSF10 (UniProt O75494)	inactive: 0.103	inactive: 0.155	inactive: -0.049	inactive: 0.004	inactive: -0.038

Reformatted field by field: part of the list above.
SPIN4 (UniProt Q56A73)
  log2 fold change [1]: inactive: -0.298
SRGAP2 (UniProt O75044)
  log2 fold change [1]: inactive: 0.03; log2 fold change (vorinostat): inactive: -0.163; log2 fold change (silmitasertib): inactive: -0.014; log2 fold change [2]: inactive: -0.05; log2 fold change (entospletinib): inactive: 0.011
ST13P4 (UniProt Q8IZP2)
  log2 fold change [1]: inactive: 0.131; log2 fold change (vorinostat): inactive: -0.216; log2 fold change (silmitasertib): inactive: 0.034
SPART (UniProt Q8N0X7)
  log2 fold change [1]: inactive: 0.021; log2 fold change (vorinostat): inactive: -0.126; log2 fold change (silmitasertib): inactive: -0.029; log2 fold change [2]: inactive: -0.019; log2 fold change (entospletinib): inactive: -0.031

Additional records

Target	log2 fold change [1]	log2 fold change (vorinostat)	log2 fold change (silmitasertib)	log2 fold change [2]	log2 fold change (entospletinib)
SPECC1L (UniProt Q69YQ0)	inactive: -0.016	inactive: 0.099	inactive: -0.023	inactive: 0.011	inactive: 0.005
SRRM2 (UniProt Q9UQ35)	inactive: 0.016	inactive: 0.027	inactive: -0.07	inactive: 0.004	inactive: -0.017
SRSF11 (UniProt Q05519)	inactive: 0.007	inactive: 0.121	inactive: -0.018	inactive: 0.005	inactive: 0.022
SRA1 (UniProt Q9HD15)	inactive: -0.005	inactive: 0.112	inactive: 0.007	inactive: -0.002	inactive: -0.003
SRGN (UniProt P10124)	inactive: -0.073	inactive: 0.132	inactive: -0.123	inactive: -0.087	inactive: -0.013
SSR3 isoform 2 (UniProt Q9UNL2)	inactive: -0.252	inactive: 0.078	inactive: 0.04	inactive: -0.062	inactive: 0.013
SSU72 (UniProt Q9NP77)	inactive: 0.015	inactive: 0.112	inactive: -0.026	inactive: -0.021	inactive: -0.014
STAT3 isoform 2 (UniProt P40763)	inactive: 0.021	inactive: -0.135	inactive: 0.016	inactive: -0.009	inactive: 0.033
STAR (UniProt P49675)	inactive: 0.002	inactive: -0.044	inactive: -0.028	inactive: -0.031	inactive: -0.103
ST3GAL2 (UniProt Q16842)	inactive: 0.04	inactive: 0.076	inactive: 0.028	inactive: -0.028	inactive: 0.001
STAT1 (UniProt P42224)	inactive: -0.012	inactive: -0.186	inactive: 0.022	inactive: 0.02	inactive: 0.045
SRFBP1 (UniProt Q8NEF9)	inactive: -0.014	inactive: 0.081	inactive: -0.067	inactive: 0.014	inactive: -0.012
SPRYD7 (UniProt Q5W111)	inactive: -0.018	inactive: 0.062	inactive: -0.024	inactive: -0.029	inactive: -0.025
STAM (UniProt A6NMU3)	inactive: 0.015	inactive: -0.073	inactive: -0.048	inactive: 0.028	inactive: 0
STAMBP (UniProt O95630)	inactive: -0.043	inactive: 0.063	inactive: -0.002	inactive: -0.043	inactive: 0.012
SPHK1 isoform 2 (UniProt Q9NYA1)	inactive: 0.091	inactive: -0.408	inactive: 0.089	inactive: -0.167	inactive: 0.032
STARD10 (UniProt Q9Y365)	inactive: -0.037	inactive: 0.148	inactive: -0.003	inactive: -0.032	inactive: 0.036
SRSF1 (UniProt Q07955)	inactive: 0.041	inactive: 0.092	inactive: -0.02	inactive: -0.039	inactive: 0.012
SRP9 (UniProt P49458)	inactive: -0.048	inactive: -0.071	inactive: 0.023	inactive: -0.031	inactive: -0.044
SPC25 (UniProt Q9HBM1)	inactive: 0.026	active: -0.266	inactive: 0	inactive: 0.016	inactive: -0.004
SRR (UniProt Q9GZT4)	inactive: -0.044	inactive: -0.063	inactive: 0.012	inactive: -0.083	inactive: -0.017
STAM (UniProt Q92783)	inactive: -0.002	inactive: 0.12	inactive: -0.027	inactive: -0.029	inactive: 0.003
SSBP3 (UniProt Q9BWW4)	inactive: -0.085	inactive: 0.061	inactive: -0.005	inactive: 0.088	inactive: 0.009
SPTBN1 (UniProt Q01082)	inactive: -0.014	inactive: 0.026	inactive: 0.001	inactive: -0.006	inactive: 0.022
SRP54 (UniProt P61011)	inactive: 0.003	active: -0.241	inactive: 0.008	inactive: 0.021	inactive: -0.004
ST3GAL4 isoform 4 (UniProt Q11206)	inactive: 0.026	inactive: 0.088	inactive: 0.046	inactive: 0.026	inactive: 0.043
SRPRA (UniProt P08240)	inactive: -0.007	inactive: -0.217	inactive: -0.022	inactive: -0.047	inactive: -0.04
